Measurements from the supplement of paper PMC12823440, “Inhibitors supercharge kinase turnover through native proteolytic circuits” (Nature, 2025).
Counter-ions that a name gives are not always drawn. The list shows a part of the results. The calls rarely recur for the same compound in another form.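 In K562 cells expressing nanoluciferase-fused kinases, luminescence was recorded at 4 h intervals between 2 and 18 h, normalized as percent of control with DMSO at 100% and a positive control at 0%. A significant (2 sigma) signal drop marks a time point as decreased. The authors' rule for a hit is not shown and takes in more than the number of time points.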

The chains behind the UniProt entries cited, without tags or fusion partners. Where a name states a change or a piece, a line headed by the entry shows the natural chain unless it says otherwise.
UniProt Q16288, whole entry, looked up: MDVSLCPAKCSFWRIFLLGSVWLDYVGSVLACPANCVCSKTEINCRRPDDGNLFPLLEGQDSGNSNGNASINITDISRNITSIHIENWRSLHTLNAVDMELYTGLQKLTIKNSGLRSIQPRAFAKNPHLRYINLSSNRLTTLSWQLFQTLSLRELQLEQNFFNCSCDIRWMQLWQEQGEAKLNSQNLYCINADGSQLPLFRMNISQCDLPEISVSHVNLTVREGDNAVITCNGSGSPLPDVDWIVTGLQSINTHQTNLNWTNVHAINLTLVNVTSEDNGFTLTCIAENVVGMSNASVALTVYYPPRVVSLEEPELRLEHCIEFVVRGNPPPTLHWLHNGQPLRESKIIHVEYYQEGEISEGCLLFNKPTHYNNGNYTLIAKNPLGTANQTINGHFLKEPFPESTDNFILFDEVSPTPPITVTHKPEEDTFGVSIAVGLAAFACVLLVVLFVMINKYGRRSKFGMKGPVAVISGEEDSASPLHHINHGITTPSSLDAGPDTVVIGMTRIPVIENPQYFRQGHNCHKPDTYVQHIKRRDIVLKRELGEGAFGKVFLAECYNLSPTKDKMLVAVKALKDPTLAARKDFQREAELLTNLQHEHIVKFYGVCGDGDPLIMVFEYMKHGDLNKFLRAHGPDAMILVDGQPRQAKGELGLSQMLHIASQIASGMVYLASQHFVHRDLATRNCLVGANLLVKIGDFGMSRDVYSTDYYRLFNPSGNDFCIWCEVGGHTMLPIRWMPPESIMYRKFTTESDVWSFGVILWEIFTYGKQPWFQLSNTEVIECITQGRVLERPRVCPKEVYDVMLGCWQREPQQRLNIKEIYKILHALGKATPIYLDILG
UniProt O96013: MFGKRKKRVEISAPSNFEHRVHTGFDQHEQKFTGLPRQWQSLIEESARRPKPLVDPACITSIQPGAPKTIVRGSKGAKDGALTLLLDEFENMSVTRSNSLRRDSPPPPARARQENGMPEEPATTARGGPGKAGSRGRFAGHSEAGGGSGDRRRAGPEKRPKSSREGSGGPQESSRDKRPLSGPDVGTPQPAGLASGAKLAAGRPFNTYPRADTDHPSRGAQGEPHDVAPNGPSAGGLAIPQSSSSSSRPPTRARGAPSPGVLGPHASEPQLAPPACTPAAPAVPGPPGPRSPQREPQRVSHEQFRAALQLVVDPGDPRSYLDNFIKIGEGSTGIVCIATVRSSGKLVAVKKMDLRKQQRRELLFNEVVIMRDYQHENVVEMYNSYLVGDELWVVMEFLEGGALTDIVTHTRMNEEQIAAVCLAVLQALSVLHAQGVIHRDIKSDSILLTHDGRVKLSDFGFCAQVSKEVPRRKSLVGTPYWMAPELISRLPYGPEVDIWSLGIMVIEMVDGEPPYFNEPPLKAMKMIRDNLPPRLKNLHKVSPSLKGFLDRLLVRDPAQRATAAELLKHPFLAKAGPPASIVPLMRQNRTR
UniProt Q96KB5: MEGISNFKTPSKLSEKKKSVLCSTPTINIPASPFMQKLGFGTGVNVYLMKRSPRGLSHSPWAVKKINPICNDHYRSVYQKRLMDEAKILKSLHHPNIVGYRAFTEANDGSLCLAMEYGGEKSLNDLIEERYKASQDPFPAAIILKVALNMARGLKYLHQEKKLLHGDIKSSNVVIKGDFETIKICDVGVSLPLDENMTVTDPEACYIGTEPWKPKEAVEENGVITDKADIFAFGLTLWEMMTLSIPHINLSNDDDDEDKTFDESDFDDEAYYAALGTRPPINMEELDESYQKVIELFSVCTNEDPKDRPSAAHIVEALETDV
UniProt P09619, whole entry: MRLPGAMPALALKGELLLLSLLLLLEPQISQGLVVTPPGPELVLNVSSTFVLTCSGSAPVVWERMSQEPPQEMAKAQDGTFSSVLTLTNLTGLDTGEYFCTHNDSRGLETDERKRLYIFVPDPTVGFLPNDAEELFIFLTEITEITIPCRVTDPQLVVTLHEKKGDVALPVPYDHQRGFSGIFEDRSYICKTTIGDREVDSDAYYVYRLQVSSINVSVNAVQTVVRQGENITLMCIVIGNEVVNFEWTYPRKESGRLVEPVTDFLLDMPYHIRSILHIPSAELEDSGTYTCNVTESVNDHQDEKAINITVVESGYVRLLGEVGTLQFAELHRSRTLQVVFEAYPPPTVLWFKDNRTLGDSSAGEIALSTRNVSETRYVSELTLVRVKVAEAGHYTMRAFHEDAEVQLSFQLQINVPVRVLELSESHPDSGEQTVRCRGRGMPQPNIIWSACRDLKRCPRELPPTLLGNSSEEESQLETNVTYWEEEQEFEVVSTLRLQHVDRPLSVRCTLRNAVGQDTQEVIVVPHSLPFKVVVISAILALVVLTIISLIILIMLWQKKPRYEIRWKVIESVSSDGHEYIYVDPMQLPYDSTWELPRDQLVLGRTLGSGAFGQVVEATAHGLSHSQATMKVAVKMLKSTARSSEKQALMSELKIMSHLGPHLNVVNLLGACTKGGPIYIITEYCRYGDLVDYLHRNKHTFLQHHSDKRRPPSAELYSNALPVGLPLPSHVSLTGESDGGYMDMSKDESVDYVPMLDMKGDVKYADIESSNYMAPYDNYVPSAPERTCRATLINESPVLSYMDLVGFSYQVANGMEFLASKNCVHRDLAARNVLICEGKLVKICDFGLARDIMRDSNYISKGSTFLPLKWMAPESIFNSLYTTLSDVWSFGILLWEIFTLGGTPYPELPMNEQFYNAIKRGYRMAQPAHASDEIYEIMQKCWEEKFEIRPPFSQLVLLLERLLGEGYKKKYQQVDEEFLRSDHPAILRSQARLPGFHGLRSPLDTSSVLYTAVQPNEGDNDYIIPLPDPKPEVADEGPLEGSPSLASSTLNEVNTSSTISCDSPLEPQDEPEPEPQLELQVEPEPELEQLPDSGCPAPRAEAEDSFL
UniProt P42356, whole entry, looked up: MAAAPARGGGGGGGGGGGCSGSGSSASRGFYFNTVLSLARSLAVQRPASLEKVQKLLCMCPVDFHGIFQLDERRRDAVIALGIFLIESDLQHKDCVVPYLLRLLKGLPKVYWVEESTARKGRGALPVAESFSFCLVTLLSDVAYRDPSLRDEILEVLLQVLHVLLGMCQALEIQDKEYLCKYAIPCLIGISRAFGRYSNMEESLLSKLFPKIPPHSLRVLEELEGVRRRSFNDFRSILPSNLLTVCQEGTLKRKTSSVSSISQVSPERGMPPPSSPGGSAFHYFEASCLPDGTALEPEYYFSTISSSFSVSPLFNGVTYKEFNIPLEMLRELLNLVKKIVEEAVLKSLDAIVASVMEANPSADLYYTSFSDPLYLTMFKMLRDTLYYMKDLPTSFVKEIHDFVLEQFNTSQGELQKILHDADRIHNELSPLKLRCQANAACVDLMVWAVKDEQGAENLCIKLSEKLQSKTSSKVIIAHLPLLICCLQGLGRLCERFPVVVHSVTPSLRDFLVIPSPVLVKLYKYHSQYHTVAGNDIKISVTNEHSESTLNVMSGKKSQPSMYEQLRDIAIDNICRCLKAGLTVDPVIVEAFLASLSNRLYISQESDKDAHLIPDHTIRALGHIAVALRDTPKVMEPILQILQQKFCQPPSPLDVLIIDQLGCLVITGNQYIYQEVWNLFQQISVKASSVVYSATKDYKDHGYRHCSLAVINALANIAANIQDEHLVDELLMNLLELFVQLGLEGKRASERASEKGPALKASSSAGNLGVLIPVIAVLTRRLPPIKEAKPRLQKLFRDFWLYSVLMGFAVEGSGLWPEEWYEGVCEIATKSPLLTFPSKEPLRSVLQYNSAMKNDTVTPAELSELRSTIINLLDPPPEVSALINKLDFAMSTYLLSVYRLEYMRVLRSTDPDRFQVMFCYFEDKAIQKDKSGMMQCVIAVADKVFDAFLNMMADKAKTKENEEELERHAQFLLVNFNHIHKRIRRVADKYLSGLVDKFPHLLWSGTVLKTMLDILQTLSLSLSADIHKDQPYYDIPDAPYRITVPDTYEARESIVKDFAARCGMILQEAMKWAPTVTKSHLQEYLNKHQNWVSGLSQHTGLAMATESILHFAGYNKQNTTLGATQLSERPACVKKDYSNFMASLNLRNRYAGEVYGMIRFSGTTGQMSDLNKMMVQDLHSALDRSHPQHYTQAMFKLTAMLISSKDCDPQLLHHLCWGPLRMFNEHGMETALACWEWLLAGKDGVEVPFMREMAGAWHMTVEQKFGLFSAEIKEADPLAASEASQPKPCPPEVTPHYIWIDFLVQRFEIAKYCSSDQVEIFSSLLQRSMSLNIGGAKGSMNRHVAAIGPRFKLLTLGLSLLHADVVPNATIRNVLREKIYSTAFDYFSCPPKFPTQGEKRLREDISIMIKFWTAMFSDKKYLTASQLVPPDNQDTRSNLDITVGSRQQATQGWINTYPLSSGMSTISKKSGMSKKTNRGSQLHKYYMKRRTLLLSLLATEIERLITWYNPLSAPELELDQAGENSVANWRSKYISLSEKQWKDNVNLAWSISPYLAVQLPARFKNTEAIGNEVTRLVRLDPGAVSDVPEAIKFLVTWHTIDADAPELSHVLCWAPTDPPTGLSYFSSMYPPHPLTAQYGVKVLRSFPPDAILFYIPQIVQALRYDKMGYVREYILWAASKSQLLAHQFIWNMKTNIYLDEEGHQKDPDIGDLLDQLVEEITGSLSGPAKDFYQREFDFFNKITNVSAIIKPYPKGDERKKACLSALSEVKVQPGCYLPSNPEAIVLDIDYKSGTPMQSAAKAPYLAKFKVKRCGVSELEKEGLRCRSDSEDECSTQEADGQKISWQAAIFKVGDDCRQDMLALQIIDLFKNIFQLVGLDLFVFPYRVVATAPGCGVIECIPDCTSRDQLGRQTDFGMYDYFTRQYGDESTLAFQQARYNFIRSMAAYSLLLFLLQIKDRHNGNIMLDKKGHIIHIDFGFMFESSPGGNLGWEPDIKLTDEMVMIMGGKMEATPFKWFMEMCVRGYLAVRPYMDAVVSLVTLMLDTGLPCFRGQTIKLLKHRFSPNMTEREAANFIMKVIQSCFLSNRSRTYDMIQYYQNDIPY
UniProt Q9UBF8: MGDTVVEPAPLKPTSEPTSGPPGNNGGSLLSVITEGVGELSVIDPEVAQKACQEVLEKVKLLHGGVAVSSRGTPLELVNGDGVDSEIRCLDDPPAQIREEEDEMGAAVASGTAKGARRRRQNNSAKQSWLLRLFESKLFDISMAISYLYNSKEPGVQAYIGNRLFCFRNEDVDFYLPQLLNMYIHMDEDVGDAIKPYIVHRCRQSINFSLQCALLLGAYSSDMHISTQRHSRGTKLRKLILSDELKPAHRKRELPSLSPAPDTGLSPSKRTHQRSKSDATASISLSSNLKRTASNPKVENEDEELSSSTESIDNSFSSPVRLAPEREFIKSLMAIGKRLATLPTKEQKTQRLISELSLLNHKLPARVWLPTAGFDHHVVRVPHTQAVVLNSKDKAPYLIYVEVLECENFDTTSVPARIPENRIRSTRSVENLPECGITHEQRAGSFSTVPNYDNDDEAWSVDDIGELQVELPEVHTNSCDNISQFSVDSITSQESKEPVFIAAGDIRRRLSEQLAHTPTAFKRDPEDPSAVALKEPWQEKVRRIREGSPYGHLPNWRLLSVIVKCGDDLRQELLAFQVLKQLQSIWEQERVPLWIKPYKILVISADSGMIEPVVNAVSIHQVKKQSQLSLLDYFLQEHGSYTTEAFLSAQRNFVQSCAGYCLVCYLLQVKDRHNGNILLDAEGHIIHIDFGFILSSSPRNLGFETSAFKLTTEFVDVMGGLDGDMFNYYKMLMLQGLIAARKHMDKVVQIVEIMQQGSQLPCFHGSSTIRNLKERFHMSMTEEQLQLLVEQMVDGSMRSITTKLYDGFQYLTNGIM
UniProt P53350, whole entry: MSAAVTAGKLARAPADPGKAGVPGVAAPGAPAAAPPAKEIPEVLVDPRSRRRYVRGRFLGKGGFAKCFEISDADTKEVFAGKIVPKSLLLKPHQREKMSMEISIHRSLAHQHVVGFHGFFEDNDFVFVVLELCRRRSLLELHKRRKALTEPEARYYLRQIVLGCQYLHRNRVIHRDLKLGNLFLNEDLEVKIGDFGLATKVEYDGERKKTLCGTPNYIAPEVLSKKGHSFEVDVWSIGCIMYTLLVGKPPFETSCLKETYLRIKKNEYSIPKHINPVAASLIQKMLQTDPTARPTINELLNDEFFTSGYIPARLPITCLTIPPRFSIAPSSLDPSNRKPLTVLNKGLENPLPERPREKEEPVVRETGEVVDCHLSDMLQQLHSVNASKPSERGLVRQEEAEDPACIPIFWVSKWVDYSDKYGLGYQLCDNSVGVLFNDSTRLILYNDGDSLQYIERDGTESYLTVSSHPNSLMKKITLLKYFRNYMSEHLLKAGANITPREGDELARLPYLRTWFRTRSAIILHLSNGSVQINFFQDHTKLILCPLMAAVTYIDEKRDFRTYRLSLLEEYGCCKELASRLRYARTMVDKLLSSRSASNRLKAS

Tests used:
Test in all cases: number of time points (of 5) at which kinase-Nluc abundance scored as decreased, DMSO-normalised (count); higher = more persistent destabilization
Settings in all cases: K562; 2-18 h
NTRK3 = NTRK3 (UniProt Q16288)
PAK4 = PAK4 (UniProt O96013)
PBK = PBK (UniProt Q96KB5)
PDGFRB = PDGFRB (UniProt P09619)
PDK1 = PDK1 (UniProt Q15118)
PDPK1 = PDPK1 (UniProt O15530)
PIK4CA = PIK4CA (UniProt P42356)
PIK4CB = PIK4CB (UniProt Q9UBF8)
PLK1 = PLK1 (UniProt P53350)
PRKAA1 = PRKAA1 (UniProt Q13131)

Measured: number of time points

CC#CC(=O)Nc1ccc2ncnc(Nc3cccc(Br)c3)c2c1 (10 µM)
1: PDGFRB
0: all other assays above

CNC(=O)c1cc(COc2nnc(Nc3ccc(Cl)cc3)c3ccoc23)ccn1 [Telatinib] (10 µM)
0: all assays above

O=Nc1c(-c2c(O)[nH]c3ccc(F)cc23)[nH]c2ccccc12 [5'-Fluoroindirubinoxime] (10 µM)
3: NTRK3
0: all other assays above

Cc1nc2sccn2c(=O)c1CCN1CCC(=C(c2ccccc2)c2ccc(F)cc2)CC1 (10 µM)
0: all assays above

CCOC(=O)N1CCN(C(=O)[C@H](Cc2cccc(C(=N)N)c2)NS(=O)(=O)c2c(C(C)C)cc(C(C)C)cc2C(C)C)CC1 (10 µM)
0: all assays above

NC(=O)c1ccc(-c2nc(-c3ccc4c(c3)OCCO4)c(-c3ccccn3)[nH]2)cc1 (10 µM)
1: NTRK3
0: all other assays above

Cc1nc(-c2cn3c(n2)-c2ccc(-c4cnn(C(C)(C)C(N)=O)c4)cc2OCC3)n(C(C)C)n1 [Taselisib] (10 µM)
0: all assays above

CCc1cc2c(cc1N1CCC(N3CCOCC3)CC1)C(C)(C)c1[nH]c3cc(C#N)ccc3c1C2=O [Alectinib (Hydrochloride)] (2 µM)
0: all assays above

COc1cc(OC2CCN(C)CC2)ccc1Nc1ncc2c(n1)n(C1CCCC1)c(=O)n2C (10 µM)
0: all assays above

CCN1CCN(Cc2ccc(Nc3ncc(F)c(-c4cc(F)c5nc(C)n(C(C)C)c5c4)n3)nc2)CC1 [Abemaciclib (methanesulfonate)] (10 µM)
3: PRKAA1
0: all other assays above

CC1CCc2c(cc(Br)c(F)c2Br)N1C=O (stereo not given) (10 µM)
0: all assays above

CCS(=O)(=O)c1ncc(Cl)c(C(=O)N(Cc2ccc(Cl)cc2)Cc2ccco2)n1 (2.5 µM)
0: all assays above

Cc1c(-c2c(F)cc(C(N)=O)c3[nH]c4c(c23)CC[C@H](C(C)(C)O)C4)cccc1-n1c(=O)c2cccc(F)c2n(C)c1=O (2.5 µM)
0: all assays above

NC(=O)c1nnc(N[C@@H]2CCCC[C@@H]2N)nc1Nc1cccc2cc[nH]c12 (10 µM)
0: all assays above

Cc1cccc(Oc2cnc(=O)[nH]c2)c1 [Tolimidone] (10 µM)
0: all assays above

COc1cc2c(cc1OC)CN(S(=O)(=O)c1ccc(OC)c(N3CCN(C(=O)c4ccc(F)cc4C(F)(F)F)CC3)c1)CC2 (10 µM)
0: all assays above

Two successive entries already listed:
Cc1cccc(Oc2cnc(=O)[nH]c2)c1 [Tolimidone] (10 µM)
0: all assays above

COc1cc2c(cc1OC)CN(S(=O)(=O)c1ccc(OC)c(N3CCN(C(=O)c4ccc(F)cc4C(F)(F)F)CC3)c1)CC2 (10 µM)
0: all assays above

Later entries

Nc1cc(C(F)(F)F)c(-c2cc(N3CCOCC3)nc(N3CCOCC3)n2)cn1 [Buparlisib (Hydrochloride)] (2.5 µM)
2: PIK4CA
1: PDGFRB | PRKAA1
0: all other assays above

Cc1ccccc1-c1c2nccc(-c3ccc(F)cc3F)c2cc[n+]1[O-] (10 µM)
0: all assays above

CN1CCC(c2cc(-c3ccncc3)c(-c3ccc(F)cc3)[nH]2)CC1 (10 µM)
2: PLK1
0: all other assays above

Cc1[nH]c(/C=C2\C(=O)Nc3ccc(F)cc32)c(C)c1C(=O)N[C@H]1CCN(C(=O)N(C)C)C1 [Vorolanib] (10 µM)
0: all assays above

NC(=O)c1ccc2[nH]ccc2c1 (10 µM)
0: all assays above

CCOc1ccc2cc(-c3nn(CC4CCN(C)CC4)c4ncnc(N)c34)ccc2n1 (10 µM)
0: all assays above

CN(C)C(=O)Cn1cc(-c2ccc(-c3cncc4ccccc34)cc2)cn1 (10 µM)
0: all assays above

O=C(NCCN1CCCC1)c1cc(-c2ccc(CN3CCOCC3)cc2)nc2ccc(F)cc12 (10 µM)
0: all assays above

O=C([O-])c1cc2ccccc2c(Cc2c(O)c(C(=O)[O-])cc3ccccc23)c1O.[Na+].[Na+] [Pamoic acid (disodium)] (10 µM)
0: all assays above

S=C(SSC(=S)N1CCOCC1)N1CCOCC1 (10 µM)
3: PDPK1 | PIK4CB
0: all other assays above

C=C(CC[C@@H](C(=O)O)[C@H]1[C@H](O)C[C@@]2(C)C3=C(CC[C@]12C)[C@@]1(C)CC[C@H](OC(C)=O)C(C)(C)[C@@H]1CC3)C(C)C [Pachymic acid] (10 µM)
0: all assays above

COc1cc(Nc2ncc(F)c(Nc3ccc4c(n3)N(COP(=O)(O)O)C(=O)C(C)(C)O4)n2)cc(OC)c1OC [Fostamatinib Disodium] (10 µM)
3: PDGFRB
0: all other assays above

FC(F)c1nc2ccccc2n1-c1nc(N2CCOCC2)nc(N2CCOCC2)n1 (2 µM)
0: all assays above

O=C(Nc1cn[nH]c1-c1ccccn1)c1nn(C2CCNCC2)cc1Cl (10 µM)
0: all assays above

COc1ccccc1-c1cc(Nc2cccc(CS(N)(=O)=O)c2)ncn1 (10 µM)
2: PDPK1
3: NTRK3
1: PRKAA1
0: all other assays above

C[C@@]1(c2ncncc2F)NC(=O)c2cc(-c3cn[nH]c3)ccc21 (10 µM)
0: all assays above

Nc1nc2ccc(Cl)cc2c2nc(-c3ccco3)nn12 (10 µM)
0: all assays above

Cn1cnc(Cn2ccc3ccc(CNCc4[nH]c5ccccc5c4[C@H]4NC(=O)c5ccc(O)cc54)cc32)c1 (10 µM)
0: all assays above
